# Data: patent US20250197490A1, “ANTI-CORTICOTROPIN-RELEASING HORMONE ANTIBODIES AND USE IN CONGENITAL ADRENAL HYPERPLASIA” (HBM ALPHA THERAPEUTICS, INC., priority 2021, published 2025)
# Some entries share one result that the patent states for a list of compounds.
# System: Mrap1 KO mice
# Assay: Mrap1 KO mice constitutively high ACTH model
# Assay type: in vivo, mouse
molecule,measurement,value
"PR302334-24: humanized variant of PR302334; VH SEQ ID NO: 275, VL SEQ ID NO: 328 (antibody, V domains shown, PR302334-16 VH, PR302334-24 VH, PR302334-25 VH; PR302334-10 VL, PR302334-24 VL, PR302334-26 VL, PR302334-4 VL) VH: EVQLVESGGGLVKPGGSLRLSCAASGFTFSTYAMSWVRQAPGKGLEWVASIRSGGTTYYPDSVKGRFTISRDNAKNSLYLQMNSLRAEDTAVYYCTRGIDWGQGTTVTVSS VL: DIVMTQSPDSLAVSLGERATINCKASQSVNNDVAWYQQKPGQPPRLLIYYASNRYTGVPDRFSGSGSGTDFTLTISSLQAEDLAVYFCQQDYSSWTFGGGTKVEIK",duration of the effects of the mAbs,at least 14 days
